Laboratory results: paper PMC12670160, “A drug-repurposing screen of FDA- and EMA-approved drugs identifies two NF-κB inhibitors active against eumycetoma” (Journal of Antimicrobial Chemotherapy, 2025)
Counter-ions that a name gives are not always drawn. The campaign covered roughly 5,300 compounds. About 130 (2.5%) showed an effect of 50% or more. The list shows a part of the results. Square brackets hold non-standard residues; d marks the D form. Side chains are listed from the residue outwards. Peptide text beside a SMILES is read from it. * marks the point of attachment. X1 = CCC(C)C(N)C1=NC(C(=O)*)CS1; Orn = NCCC[CH](N)C(=O)O

What follows are compounds tested on M. mycetomatis strain mm55. Conditions: primary screen, metabolic activity vs growth control; 96 h, 2 µM; inhibitor.
`C[N+]1(C)CCC(=C(c2ccccc2)c2ccccc2)CC1` [ONC0004508, diphemanil methylsulfate] was tested, and the “% viability” value was 48.99%. For `COc1cc(/C=C/C(=O)O)ccc1O` [ONC0001205, ferulic acid sodium], the “% viability” value was 134.4%. `COc1ccc(CC2NCCc3c2[nH]c2ccc(C)cc32)c(Cl)c1OC` (stereo not drawn) [ONC0001515, ly266097] was tested, and the “% viability” value was 113.6%. In the case of `CCC(=O)O[C@H]1[C@H](O[C@@H]2[C@@H](C)[C@H](O[C@H]3C[C@@](C)(OC)[C@@H](O)[C@H](C)O3)[C@@H](C)C(=O)O[C@H](CC)[C@@](C)(O)[C@H](O)[C@@H](C)C(=O)[C@H](C)C[C@@]2(C)O)O[C@H](C)C[C@@H]1N(C)C` [ONC0000644, erythromycin estolate], the “% viability” value is reported as 91.16%. `Cc1ccc(Cl)c(OCC(O)CNC(C)(C)C)c1` (stereo not drawn) [ONC0003796, bupranolol] was tested, and the “% viability” value was 85.75%. `NC(=O)c1ccc(-c2nc(-c3ccc4c(c3)OCO4)c(-c3ccccn3)[nH]2)cc1` [ONC0001919, sb431542] was tested, and the “% viability” value was 74.1%. With `Cc1ccc(F)cc1C(=O)Nc1ccc(C(=O)N2Cc3cccn3Cc3ccccc32)c(Cl)c1` [ONC0004587, lixivaptan] the “% viability” value was 69.55%. With `NC(=O)c1ncn([C@@H]2O[C@H](CO)[C@@H](O)[C@H]2O)c1N` [ONC0004919, aicar acadesine] the “% viability” value was 121.2%. With `CC1=C(/C=C/C(C)=C/C=C/C(C)=C/C(=O)Nc2ccc(O)cc2)C(C)(C)CCC1` [ONC0001810, fenretinide] the “% viability” value was 98.64%. With `CC[N+](C)(CC)CC(=O)Nc1c(C)cccc1C` [ONC0001568, nmethyllidocaineiodide] the “% viability” value was 118.5%. With `C[C@@H]1C(=O)O[C@H]2C[C@@]34[C@H]5C[C@@H](C(C)(C)C)[C@]36[C@@H](OC(=O)[C@@H]6O)O[C@@]4(C(=O)O5)[C@]21O` [ONC0004818, ginkgolide a] the “% viability” value was 112%. `CC1=C(C(=O)OC2CCCCC2)C(c2ccc([N+](=O)[O-])cc2)C2=C(CC(C)(C)CC2=O)N1` (stereo not drawn) [ONC0000155, fli06] was tested, and the “% viability” value was 107.9%. With `CCOc1c(N2CCOCC2)cnn(C)c1=O` [ONC0002171, emorfazone] the “% viability” value was 73.46%. With `CC(c1cc2ccccc2s1)N(O)C(N)=O` (stereo not drawn) [ONC0004002, zileuton] the “% viability” value was 61.97%. With `C[C@]12C=CC(=O)C=C1CCC1C2[C@@H](O)C[C@@]2(C)C1CC[C@]2(O)C(=O)COC(=O)CCC(=O)O` (stereo partly drawn) [ONC0004028, prednisolone hemisuccinate] the “% viability” value was 62.59%. In the case of `C[C@]12CCC(=O)C=C1CCC1C2C(=O)C[C@@]2(C)C1CC[C@]2(O)C(=O)CO` (stereo partly drawn) [ONC0005338, cortisone], the “% viability” value is reported as 64.83%. For `C/C(=N\NC(=O)[C@@H]1C(=O)NC[C@H]1c1ccccc1)c1cccc(Br)c1` [ONC0002559, ac264613], the “% viability” value was 54.39%. `O=C(O)c1cc(O)c2c(c1)[C@H]([C@H]1c3cc(C(=O)O)cc(O)c3C(=O)c3c(O[C@@H]4O[C@H](CO)[C@@H](O)[C@H](O)[C@H]4O)cccc31)c1cccc(O[C@@H]3O[C@H](CO)[C@@H](O)[C@H](O)[C@H]3O)c1C2=O` [ONC0002290, sennoside a] was tested, and the “% viability” value was 83.14%. For `CN(C)CCCOc1nn(Cc2ccccc2)c2ccccc12` [ONC0004021, benzydamine hydrochloride], the “% viability” value was 64.93%. In the case of `COc1ccc(Nc2nccc(NCCO)n2)cc1` [ONC0000720, cardiogenolc], the “% viability” value is reported as 79.31%. For `CCC(C)(C)C(=O)C(=O)N1CCC[C@H]1C(=O)OCCCc1cccnc1` [ONC0002003, gpi1046], the “% viability” value was 85.52%. `O=C1c2c(O)cc(O)cc2O[C@H](c2ccc(O)c(O)c2)[C@H]1O` [ONC0004969, taxifolin dihydroquercetin] was tested, and the “% viability” value was 64.63%. For `CCCC(=O)C1(c2ccccc2)CCN(C(=O)[C@@H](Cc2ccc(OC)cc2)NC(=O)[C@@H](N)Cc2cncn2C)CC1` [ONC0001677, bms470539], the “% viability” value was 82.41%. With `CN1CCCC(CN2c3ccccc3Sc3ccccc32)C1` (stereo not drawn) [ONC0002869, mepazine] the “% viability” value was 113.3%. For `Nc1ccn(C[C@@H](CO)OCP(=O)(O)O)c(=O)n1` [ONC0004422, cidofovir vistide], the “% viability” value was 106.5%. `C1CCC(/N=C(\NC23CC4CC(CC(C4)C2)C3)N2CCOCC2)CC1` [ONC0002564, pnu37883] was tested, and the “% viability” value was 92.95%. With `FC(F)(F)c1ccc(/C=C/c2nc(COc3ccc(CCCCn4ccnn4)cc3)co2)cc1` [ONC0000071, mubritinib] the “% viability” value was 94.3%. For `CC(C)NCCN(C(C)C)S(=O)(=O)c1ccc(Cl)cc1Cl` [ONC0000831, rn1734], the “% viability” value was 59.26%. With `CC(=O)OCC(=O)[C@@]1(O)CC[C@H]2[C@@H]3CCC4=CC(=O)CC[C@]4(C)[C@H]3C(=O)C[C@@]21C` [ONC0000306, cortisone acetate] the “% viability” value was 62.86%. `C=C1C(=O)O[C@H]2[C@H]1CC/C(C)=C\CC[C@@]1(C)O[C@@H]21` [ONC0004743, parthenolide parthenolide] was tested, and the “% viability” value was 94.43%. `COc1cc(C(=O)N2CCOCC2)cc(OC)c1OC` [ONC0002381, trimetozine] was tested, and the “% viability” value was 59.35%. `Cc1ccc(S(=O)(=O)NC2c3ccccc3Oc3ccccc32)cc1` [ONC0003550, ah7614] was tested, and the “% viability” value was 103.8%. With `CC(C)(C)c1cc(C(=O)/C=C/c2ccc(C(=O)O)cc2)cc(C(C)(C)C)c1` [ONC0003055, ch55] the “% viability” value was 140.3%. For `CC(=O)OCC(=O)[C@@]1(O)CC[C@H]2[C@@H]3CCC4=CC(=O)C=C[C@]4(C)[C@@]3(F)[C@@H](O)C[C@@]21C` [ONC0002953, isoflupredoneacetate], the “% viability” value was 81.46%. `CO[C@]12C[C@@H](COC(=O)c3cncc(Br)c3)CN(C)[C@@H]1Cc1cn(C)c3cccc2c13` [ONC0000664, nicergoline] was tested, and the “% viability” value was 95.08%. For `CCCCC(=O)O[C@]1(C(=O)CO)[C@@H](C)C[C@H]2[C@@H]3CCC4=CC(=O)C=C[C@]4(C)[C@@]3(F)[C@@H](O)C[C@@]21C` [ONC0003201, betamethasone valerate], the “% viability” value was 84.65%. With `C[C@@H](CN1CCC(n2c(=O)[nH]c3cc(Cl)ccc32)CC1)NC(=O)c1ccc2ccccc2c1` [ONC0000807, vu0155069] the “% viability” value was 96%. `O=C(O)COc1nn(Cc2ccccc2)c2ccccc12` [ONC0001924, bendazac] was tested, and the “% viability” value was 52.28%. For `S=C=Nc1ccc(N=C=S)cc1` [ONC0003922, bitoscanate], the “% viability” value was 63.03%. In the case of `O=C(O)COc1cccc(-c2ocnc2-c2nc(-c3ccccc3)c(-c3ccccc3)o2)c1` [ONC0001730, bmy45778], the “% viability” value is reported as 72.58%. With `CCCCCn1cc(C(=O)NC23CC4CC(CC(C4)C2)C3)c(=O)c2cc(-c3ccccc3)ccc21` [ONC0000099, cor170] the “% viability” value was 96.49%. With `OC[C@@H](O)[C@@H](O)[C@H](O)[C@@H](O)CO` [ONC0003340, mannitol] the “% viability” value was 113.8%. For `CNS(=O)(=O)Nc1nccc(Cc2c(C)c3ccc(Oc4ncccn4)cc3oc2=O)c1F` [ONC0005131, ro5126766 ch5126766], the “% viability” value was 91.03%. With `Cn1cc(C(=O)OCC2CCN(CCNS(C)(=O)=O)CC2)c2ccccc21` [ONC0001549, gr113808] the “% viability” value was 117.8%. `CCc1nc(C(N)=O)c(Nc2ccc(N3CCC(N4CCN(C)CC4)CC3)c(OC)c2)nc1NC1CCOCC1` [ONC0002040, gilteritinib] was tested, and the “% viability” value was 63.73%. In the case of `CCC(C)C(N)C1=NC(C(=O)NC(CC(C)C)C(=O)NC(CCC(=O)O)C(=O)NC(C(=O)NCCCCC2NC(=O)C(CC(N)=O)NC(=O)C(CC(=O)O)NC(=O)C(Cc3c[nH]cn3)NC(=O)C(Cc3ccccc3)NC(=O)C(C(C)CC)NC(=O)C(CCCN)NC2=O)C(C)CC)CS1` (stereo not drawn) [ONC0003188, bacitracin] (cyclo(DNK([Ile-Glu-Leu-X1])[Orn]IFH); configuration not given here), the “% viability” value is reported as 113.7%. For `CN1CCN(C(=O)c2nc3cc(Cl)ccc3[nH]2)CC1` [ONC0003559, jnj10191584], the “% viability” value was 96.39%. In the case of `CC1(C)CN2C(CS/C(=N\C3CCCCC3)NC3CCCCC3)=CSC2=N1` [ONC0001636, it1t], the “% viability” value is reported as 57.26%. For `O=C(O)C(Cc1ccccc1)NCc1ccc(Cl)cc1` (stereo not drawn) [ONC0002816, brl26314], the “% viability” value was 122.6%. In the case of `O=C(O)c1ccccc1NCCc1ccccc1` [ONC0003736, tromaril], the “% viability” value is reported as 110.6%. For `NC1N[C@@](c2cccc(-c3cncnc3)c2)(c2ccnc(C(F)F)c2)c2cccc(F)c21` (stereo partly drawn) [ONC0005216, azd3839], the “% viability” value was 152.4%. In the case of `NC(=O)[C@@H]1CC[C@@H]2CN1C(=O)N2OS(=O)(=O)O` [ONC0001778, avibactam sodium], the “% viability” value is reported as 97.05%. `CN[C@@H](C)C(=O)N[C@H](C(=O)N1CCC[C@H]1C(=O)Nc1snnc1-c1ccccc1)C1CCCCC1` [ONC0004552, gdc0152] was tested, and the “% viability” value was 53.06%. `O=C(/C=C/c1ccc2ccc(C(F)(F)F)cc2n1)c1ccncc1` [ONC0002207, pfk158] was tested, and the “% viability” value was 67.27%. In the case of `CN1CCN(c2cccc(Nc3nc4c(-c5ccc(S(C)(=O)=O)cc5)cccn4n3)c2)CC1` [ONC0004498, cep33779], the “% viability” value is reported as 73.37%. In the case of `Oc1ccc(O)cc1` [ONC0003889, hydroquinone], the “% viability” value is reported as 77.99%. With `Nc1ncnc2c1c(-c1ccc(Oc3ccccc3)cc1)nn2C1CCCC1` [ONC0000019, pci29732] the “% viability” value was 80.57%.
